In PubChem BioAssay AID1508600 (Functional Genomics Laboratory (NCATS/FGL), 2020):
Screen size: about 53,000 sequences; about 3,700 (7%) were called active.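 How the source made its calls: active means gene knockdowns whose robust z-score for IL-1 alpha signal is at least 2 or at most -2, so actives lie on both sides; inactive means the rest.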 The list shows a part of the results.

Experiment: Components of the Cytosolic LPS Sensing Pathway: Gene Identification via Genome-wide siRNA Screen;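 further: robust z of the log signal after scaling to non-targeting control siRNA wells of the plate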
Conditions: RAW264.7 macrophages, IL-1a HTRF, actives lie on both sides, screened at 100 nM (by protocol), cells primed 5 h with Pam3CSK4 first
How it was run: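 Read-out: IL-1a HTRF on supernatant, divided by plate negative-control median ×100, log-transformed and converted to robust z-score. Cells were RAW264.7 given 100 nM siRNA, Pam3CSK4-primed 5 hours, then LipidA-transfected 24 hour.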

Row | Sequence | z-score
1 | GGUUGCUCUUCUUAAGGAGTT against Aimp1 | inactive: 0.415
2 | GGAGGCAGAGCUGUCCAAATT against Timm10 | inactive: -1.35
3 | GGACGCACACGUACAUCGUTT against Mex3d | inactive: 0.65
4 | AAUGCAGGUUAUUGUGGGATT against Gm5334 | inactive: -0.288
5 | GGGAGACCUUACUUUUUAATT against Foxr2 | inactive: 1.04
6 | GCUGCAUCUAAAGCCUUAATT against Olfr661 | inactive: 1.41
7 | GGAAGAAAAAGAAAAGAGUTT against Dek | inactive: -0.634
8 | GGACAUCCAUUCAUGCUUUTT against Serpinb1b | inactive: -0.529
9 | GGAGAAAAUCAAAGAAGCUTT against Gnpda2 | inactive: -1.44
10 | GGCCUAAACCCUUUCAUCUTT against V1rb6 | inactive: -0.0202
11 | GCAGUGCGAUUGCUUACAGTT against Tube1 | inactive: 1.07
12 | GCUGAGUCAAAAUGUAAAGTT against Cdc25c | inactive: 0.354
13 | GGCACUGUAGACAAACUCUTT against Stxbp1 | inactive: -0.468
14 | GGAGUUGAAUGGCUCUGGATT against Usp26 | active: -2.11
15 | GCUGAAUCUGUUGUCCGUGTT against Mpo | inactive: 1.1
16 | GGUCGUUGUGUCUGAAUACTT against Triml1 | inactive: 0.729
17 | GGAAGCAAAAUAAAGAAACTT against Myo1e | inactive: 0.109
18 | GCCGACAUAGCAUUAUUAATT against Spry2 | inactive: -0.194
19 | CCAAUGUUGGAAAGCCUUUTT against Zfp97 | inactive: 0.236
20 | CGACUUGCAUCAGUGGAUCTT against Cpxm2 | inactive: 1.97
21 | GGCAGUAUCCUUAUGCAUGTT against Ptges3 | inactive: 1.53
22 | GGGUUUCGCUAGAACCAUUTT against Plekhg5 | inactive: -0.541
23 | GGCCUUAUUGAUAAGUCUUTT against Acot3 | inactive: 0.662
24 | GGAGGAAAAGAAAGGUCCUTT against Klc3 | inactive: 0.628
25 | CCUAAUUUGAUCCUUCGAATT against Zfp672 | inactive: -0.947
26 | GCUUCACUCACAUAAUAUCTT against Mrps31 | inactive: -0.932
27 | CAUCAUUGAGAUGUCACACTT against Ypel4 | inactive: -0.879
28 | GGACUUCAUCAACAACAUCTT against Nsmce1 | inactive: 0.459
29 | GCAGUUCGUAAAAAGGAAATT against Cenpo | inactive: 0.697
30 | GGUUAAUAAUGCGACAGCATT against Rbfox1 | inactive: 0.00257

Nos. 22 through 23 from above:
Row | Sequence | z-score
22 | GGGUUUCGCUAGAACCAUUTT against Plekhg5 | inactive: -0.541
23 | GGCCUUAUUGAUAAGUCUUTT against Acot3 | inactive: 0.662
